Data reported in the supplement of paper PMC6690932.
“And” between values parts separate entries of the source, which are not always exact repeats. Identical values can stand only once. ± gives the standard deviation of the averaged measurements. The list shows a part of the results. Single values are uncertain, as repeats are few or missing.

Test system: HeLa
Experiment: lysosomal-METRIQ red/green fluorescence ratio relative to DMSO (ratio to DMSO); higher = higher lysosomal activity / lysosomal biogenesis
Conditions: 10 µM; 12 h

Structure (SMILES)	lysosomal-METRIQ red/green fluorescence ratio
O=S(=O)(c1cccc2cnccc12)N1CCCNCC1	1.13
CCN(CC)CC(=O)Nc1c(C)cccc1C [Lidocaine]	1.08
CC(C)C[C@H](NC(=O)[C@@H](O)[C@H](N)Cc1ccccc1)C(=O)O [Bestatin]	0.581
CCOC(=O)C1=C(C)NC(=S)NC1c1cccc(O)c1 (stereo not given) [Monastrol]	1
N#CC(=C(/N)Sc1ccccc1N)/C(C#N)=C(/N)Sc1ccccc1N	0.938 and 1.07
C[C@]1(c2nc3c(C(N)=O)cccc3[nH]2)CCCN1 [ABT-888 (Veliparib)]	1
CCN(CC)CCCCNc1ncc2cc(-c3cc(OC)cc(OC)c3)c(NC(=O)NC(C)(C)C)nc2n1	0.727
C=CCc1cccc(/C=N/NC(=O)CN2CCN(Cc3ccccc3)CC2)c1O	0.864
C=CCNC1=C2C[C@@H](C)C[C@H](OC)[C@H](O)[C@@H](C)/C=C(\C)[C@H](OC(N)=O)[C@@H](OC)/C=C\C=C(/C)C(=O)NC(=CC1=O)C2=O	0.867
O=c1c2ccccc2[nH]c(=S)n1CCN1CCC(=C(c2ccc(F)cc2)c2ccc(F)cc2)CC1 [Diacylglycerol kinase inhibitor II]	1
Nc1cccc2c1CN(C1CCC(=O)NC1=O)C2=O (stereo not given) [lenalidomide]	0.818
CCC(=C/[C@H](C)C/C=C/C(C)=C/[C@@H](C)C(=O)[C@@H](C)[C@H](O)[C@@H](C)C/C(C)=C/C(=O)O)/C=C/[C@@H]1OC(=O)C=C[C@@H]1C [Leptomycin B*]	1.61
COc1ccc(Cn2ccc3ccc(C(=O)NO)cc32)cc1	0.955
CN(C)CC(=O)Nc1ccc2[nH]c(=O)c3ccccc3c2c1	0.818
CCCCCCCCCCCCCCOc1ccc(C(=O)O)o1	1.08
CCCCC(=O)Oc1ccccc1C(=O)O [Valeryl salicylate]	1
O=Nc1c(-c2c(O)[nH]c3ccccc23)[nH]c2ccccc12 [indirubin-3'-monoxime]	0.188
O=c1cc(-c2ccccc2)oc2cc(O)c(O)c(O)c12 [Baicalein]	1.09

Structure (SMILES)	lysosomal-METRIQ red/green fluorescence ratio
Cn1c(=O)c2nc[nH]c2n(C)c1=O [Theophylline]	1.05
N=C(N)NC(=O)c1nc(Cl)c(N)nc1N [Amiloride]	1
CCCCC[C@H](CC(=O)NO)C(=O)N[C@H](C(=O)N1CCC[C@H]1CO)C(C)C [Actinonin]	1
O=C1NC(=O)c2c1c1c3ccccc3[nH]c1n1cncc21 [isogranulatimide]	0.864
CCCCCCCC(=O)OCCOC(=O)CCCCCCC [Dioctanoylglycol]	1.04
CC(/C=C/C(=O)NO)=C\[C@@H](C)C(=O)c1ccc(N(C)C)cc1 [Trichostatin A]	0.65
CCCCCCCCCCC1=C(C)C(=O)C(OC)=C(OC)C1=O [Decylubiquinone]	0.957
COC(=O)C[C@H](NC(=O)[C@H](C)NC(=O)[C@@H](NC(=O)OCc1ccccc1)C(C)C)C(=O)CF	1
CCN(CC)CCNC(=O)c1c(C)[nH]c(/C=C2\C(=O)Nc3ccc(Cl)cc32)c1C	3.12
CO[C@H]1C[C@@H]2CC[C@@H](C)[C@@](O)(O2)C(=O)C(=O)N2CCCC[C@H]2C(=O)O[C@H]([C@H](C)C[C@@H]2CC[C@@H](OCCO)[C@H](OC)C2)CC(=O)[C@H](C)/C=C(\C)[C@@H](O)[C@@H](OC)C(=O)[C@H](C)C[C@H](C)/C=C/C=C/C=C/1C [everolimus]	1.05
CC(C)(C)c1nc2c3cc[nH]c(=O)c3c3cc(F)ccc3c2[nH]1 [JAK Inhibitor I]	1.31
Fc1ccc(Cl)cc1-c1nc(Nc2ccncc2)c2nccnc2n1	0.955
COc1cc2c(cc1OC)-c1[nH]nc(Nc3cccc(F)c3)c1C2 [PDGF receptor tyrosine kinase inhibitor IV]	1.12
O=C(Nc1cccc2cccnc12)c1ccc(N2C(=O)[C@@H]3[C@H](C2=O)[C@@H]2C=C[C@H]3C2)cc1 [IWR-1-endo]	0.818
CC(C)CC(NC(=O)CNC(=O)OCc1ccccc1)C(=O)NC(Cc1ccccc1)C(=O)CCl (stereo not given)	1.08
CC(C)C[C@H](NC(=O)[C@H](Cc1ccccc1)NC(=O)c1cnccn1)B(O)O [bortezomib]	0.5
Cn1cnc2c(NCc3ccccc3)nc(NCCO)nc21 [Olomoucine]	0.973 ± 0.1
